Assay results published in PubChem BioAssay AID1487 (National Center for Advancing Translational Sciences (NCATS), 2009).
In all, about 200,000 compounds went through this assay and about 25 (0.01%) were called active. The shares of active, inactive and inconclusive entries below differ from those in the screen. Calls follow the shape of the dose curve; as a rule, active = well fitted inhibition curve with a large enough effect in the signal ratio, with a control signal flat (not every such curve was filed as active); inconclusive = small, poorly fitted or top-dose-only effect, or effect the other way, or a change in a side signal; inactive = flat fitted curve, though single readings scatter; the % refers to the signal ratio. A potency beside an inconclusive call is a rough fit, not a confirmed value.
% is scaled to controls: 0 for no effect and ±100 for the full control effect; potency is read from the fitted curve at half-maximal effect.

Assay: qHTS Assay for Modulators of Lamin A Splicing
Conditions: HeLa LMNA splicing GFP/RFP minigene ratio, 48 h; ratio change, negative = inhibition: at 46.1 µM (top of the series) unless noted
In short: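 S3 HeLa cells stably expressing lamin A-EGFP splicing minigene plus DsRed2, 600 cells/well, 48 h compound exposure at 37C. Laser-scanning cytometry; analysed as GFP (500-530 nm)/RFP (575-640 nm) total intensity ratio; 0.5% DMSO vehicle.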
With C=C(Nc1ccc(OCC)cc1)Nc1ccc(OCC)cc1 the ratio change, negative = inhibition was inconclusive: 14.7%.
For CCOC(=O)c1nn(-c2ccccc2C)c(=O)c(C#N)c1C, the ratio change, negative = inhibition was “inactive”.
In the case of CC(C)C(=O)NCC(c1ccc2c(c1)OCO2)N1CCN(c2ccccc2)CC1 (stereo not drawn), the ratio change, negative = inhibition was inconclusive: -9.12% [at 46 µM].
For Cc1nc(-c2coc3c(CN(C)C)c(O)ccc3c2=O)cs1, the ratio change, negative = inhibition was inconclusive: -31.5% [at 46 µM].
In the case of Cc1ccc(CCNC(=O)CCS(=O)(=O)c2cc3c(cc2C)NC(=O)CO3)cc1, the ratio change, negative = inhibition was inconclusive: -4.54% [at 46 µM].
For Cc1nc2ncnn2c(C)c1CCC(=O)N1CCc2ccccc2C1, the ratio change, negative = inhibition was inconclusive: 4.93%.
In the case of CCCCC(=O)Nc1ccc2c(c1)nc1n2CCSC1, the ratio change, negative = inhibition was “inactive”.
For COc1cc2c(cc1OC)C(COc1cc(C)cc(C)c1)N(C(=O)COc1ccccc1)CC2 (stereo not drawn), the ratio change, negative = inhibition was inconclusive: -25.1% [at 46 µM].
With CN(C)C(C)(C)C#CC(O)(c1ccccc1)c1ccccc1 the ratio change, negative = inhibition was inconclusive: 2.39% [at 46 µM].
With Cc1ccccc1CCNC(=O)c1cc2cc(S(=O)(=O)N3CCCCC3)ccc2n1C the ratio change, negative = inhibition was inconclusive: 11.6% [at 46 µM].
In the case of COc1ccc(-c2nnc(NC(=O)c3ccc(S(=O)(=O)N4CCc5ccccc5C4)cc3)o2)cc1, the Potency was inconclusive: 12.6 µM [falling, partial curve].
With CCC(=O)Nc1c(S(=O)(=O)c2ccccc2)c2nc3ccccc3nc2n1C(C)c1ccccc1 (stereo not drawn) the Potency was inconclusive: 35.5 µM [fluorescent, single point].
In the case of C=CCSc1nc2c(sc3nc(C)cc(C)c32)c(=O)[nH]1, the ratio change, negative = inhibition was “inactive”.
In the case of Cc1ccc(CN(C(=O)COc2ccccc2Cl)c2ccccn2)o1, the Potency was inconclusive: 0.891 µM [activator, partial curve, poor fit].
In the case of Cc1c(O)c(=O)ccn1C, the ratio change, negative = inhibition was inconclusive: -1.84%.
For O=C(CCNc1ccc(Br)cc1)c1cccc([N+](=O)[O-])c1, the Potency was inconclusive: 35.5 µM [rising, partial curve].
With Cc1ccc(NC(=O)CCN2C(=O)CSC2=O)cc1 the ratio change, negative = inhibition was “inactive”.
With O=C(CC(=O)N/N=C\c1ccc([N+](=O)[O-])cc1)NCCc1ccccc1 the ratio change, negative = inhibition was inconclusive: -2.17% [at 46 µM].
With N/N=C1\CCCc2nonc21 the ratio change, negative = inhibition was inconclusive: -4.61% [at 46 µM].
In the case of CCc1ccc(S(=O)(=O)NCc2ccc3c(c2)CCN3C(=O)c2ccc(C)cc2)cc1, the ratio change, negative = inhibition was “inactive”.
In the case of COc1ccc(/C=N/Nc2nonc2N)cc1OC, the ratio change, negative = inhibition was inconclusive: -3.61%.
In the case of Cc1ccc(NS(=O)(=O)c2cccc(C(=O)NNC(=O)NC3CCCCC3)c2)c(C)c1, the ratio change, negative = inhibition was inconclusive: -40.9%.
In the case of CC(C)c1ccc(C(CC(=O)O)NC(=O)c2cccs2)cc1 (stereo not drawn), the ratio change, negative = inhibition was inconclusive: -16% [at 46 µM].
For Oc1ccccc1/C=N/NC1=NCCCCC1, the ratio change, negative = inhibition was “inactive”.
In the case of CCOc1ncccc1C(=O)N1CCN(C(c2ccccc2)c2ccccc2)CC1, the ratio change, negative = inhibition was inconclusive: -32.5% [at 46 µM].
With CCOc1ccccc1NC(=O)CCc1c(C)nn(-c2ccc(N3CCCCC3)nn2)c1C the Potency was inconclusive: 35.5 µM [inhibitor, single point].
In the case of CCOC(=O)c1sc2nc(C)nc(SCC(=O)NC3CCS(=O)(=O)C3)c2c1C (stereo not drawn), the ratio change, negative = inhibition was “inactive”.
For CNc1ccc(Br)cc(C(=O)/C=C/c2cccc(OC)c2)c1=O, the Potency was inconclusive: 35.5 µM [inhibitor, single point].
For CC(=O)c1ccc(N2CCN(C(=O)CCN3C(=S)NC(C)(C)CC3C)CC2)cc1 (stereo not drawn), the ratio change, negative = inhibition was inconclusive: -31.4% [at 9.22 µM].
In the case of CC1CCC(C(C)C)C(=O)C1 (stereo not drawn), the ratio change, negative = inhibition was inconclusive: -6.56%.
In the case of O=C1C[C@@H](c2ccc(O)cc2)Oc2cc(O)cc(O)c21, the ratio change, negative = inhibition was “inactive”.
With CCCCN(CCCC)S(=O)(=O)c1ccc2oc(C(=O)N3CCOCC3)c(C)c2c1 the Potency was inconclusive: 35.5 µM [fluorescent, single point].
For O=C1C(c2ccc(F)cc2)N(CC2COc3ccccc3O2)C(=O)CN1C1CCCCC1 (stereo not drawn), the ratio change, negative = inhibition was inconclusive: 4.59%.
In the case of COc1ccccc1Nc1sc(C(=O)c2ccc(F)cc2)c(N)c1S(=O)(=O)c1ccc(C)cc1, the ratio change, negative = inhibition was inconclusive: -12.9% [at 46 µM].
In the case of CN(Cc1ccccc1)C(=O)c1ccc(CSc2nc3cccnc3n2Cc2ccccc2F)cc1, the ratio change, negative = inhibition was “inactive”.
With Cc1ccc(-c2noc(CCC(=O)Nc3ccc4c(c3)OCO4)n2)cc1 the ratio change, negative = inhibition was inconclusive: 8.68%.
With Cc1ccc(-n2ncc3c(Nc4cccc(Cl)c4)ncnc32)c(C)c1 the ratio change, negative = inhibition was inconclusive: -13.7% [at 46 µM].
For c1ccc([C@H]2CN3CCSC3=N2)cc1, the ratio change, negative = inhibition was inconclusive: -20%.
In the case of CCc1ccc(CNC(=O)CCc2c(C)nn(-c3ccc(N4CCCC4)nn3)c2C)cc1, the ratio change, negative = inhibition was inconclusive: -12.7% [at 46 µM].
With CCc1nnc(NS(=O)(=O)c2ccc(NC(=O)/C=C/c3ccccc3Cl)cc2)s1 the ratio change, negative = inhibition was inconclusive: 9.48% [at 46 µM].
With Oc1ccc2c(c1)OC(c1ccc(O)c(O)c1)C(O)C2 (stereo not drawn) the ratio change, negative = inhibition was inconclusive: -15.7%.
With COc1ccccc1CNC(=O)C(=O)NCC(c1ccco1)S(=O)(=O)c1ccc(C)cc1 (stereo not drawn) the ratio change, negative = inhibition was inconclusive: -28.8% [at 46 µM].
For C/C(=N\Nc1ncc(Cl)cc1Cl)c1cccs1, the ratio change, negative = inhibition was inconclusive: 7.44% [at 46 µM].
In the case of O=C(CSc1nccn1Cc1ccc(Cl)cc1)Nc1nc2ccccc2s1, the ratio change, negative = inhibition was “inactive”.
For O=C(NCc1ccccc1Cl)c1ccccc1NC(=O)c1nsc2ccccc12, the ratio change, negative = inhibition was inconclusive: 23.7% [at 46 µM].
For Cc1ccc(NC(=O)CN2C(=O)NC3(CCCc4ccccc43)C2=O)cc1S(=O)(=O)N1CCOCC1 (stereo not drawn), the Potency was inconclusive: 7.94 µM [inhibitor, partial curve].
With Cc1ccc(-n2cc(CNCCCN3CCCC3=O)c(-c3ccc(F)cc3)n2)cc1 the ratio change, negative = inhibition was inconclusive: -14.9% [at 46 µM].
In the case of Cc1ccc(NC(=O)C2CCCN(C(=O)c3ccc(Cl)cc3)C2)cc1C (stereo not drawn), the ratio change, negative = inhibition was inconclusive: -44.6% [at 46 µM].
With O=Cc1c(N2CCN(c3ccccc3)CC2)nc2ccccn2c1=O the ratio change, negative = inhibition was inconclusive: -12.2% [at 46 µM].
In the case of O=C(c1ccc(Cl)cc1)N1CCN(CCc2ccncc2)CC1, the ratio change, negative = inhibition was inconclusive: -4.42% [at 46 µM].
For COc1cccc(/C=N/Nc2snc(SC)c2C#N)c1O, the ratio change, negative = inhibition was inconclusive: -48%.
In the case of CCC(=O)OC1=C(C(C)=O)N(Cc2ccccc2)S(=O)(=O)c2ccccc21, the ratio change, negative = inhibition was “inactive”.
With NC(=O)c1ccc([N+](=O)[O-])cc1Cl the ratio change, negative = inhibition was inconclusive: -37.4%.
In the case of Cc1nc(C(=O)NC(C)C)nn1-c1cc(Cl)cc(Cl)c1, the ratio change, negative = inhibition was “inactive”.
In the case of O=C(CN(C(=O)c1csnn1)c1cccc2ccccc12)NC1CCCC1, the ratio change, negative = inhibition was inconclusive: 7.18% [at 46 µM].
For CCCn1cnc2c(c1=O)c1nc3ccccc3nc1n2Cc1ccccc1OC, the ratio change, negative = inhibition was “inactive”.
With CCOc1ccc(-n2nc(C(=O)NCCOC)c3ccccc3c2=O)cc1 the ratio change, negative = inhibition was “inactive”.
For C[C@H]1Cc2c(COc3ccccc3)nc3c(c2CO1)CN(S(=O)(=O)c1ccc(Cl)c2nonc12)CC3, the ratio change, negative = inhibition was inconclusive: 7.65% [at 9.22 µM].
With O=C(C1CCCCC1)N1CCCc2ccccc21 the ratio change, negative = inhibition was inconclusive: 19%.
In the case of O=C(N/N=C/c1ccc(N2CCOCC2)s1)c1ccccc1Cl, the ratio change, negative = inhibition was inconclusive: -22.2% [at 9.22 µM].
For COc1cc(CN2CCNC(=O)C2CC(=O)N(C)Cc2cccnc2)cc(OC)c1 (stereo not drawn), the ratio change, negative = inhibition was inconclusive: 15.5% [at 46 µM].
In the case of CCc1nn(C(C)C(=O)NC(C)CCc2ccco2)c(=O)c2cc3occc3n12 (stereo not drawn), the ratio change, negative = inhibition was inconclusive: 9.19%.
In the case of CCc1ccc(S(=O)(=O)c2cn(Cc3ccccc3)c3cc(N4CCCC4)c(F)cc3c2=O)cc1, the ratio change, negative = inhibition was “inactive”.
In the case of O=C(CCCSc1nc2ccccc2[nH]1)Nc1nnc(-c2ccccc2)o1, the ratio change, negative = inhibition was inconclusive: -29.1%.
In the case of CCc1n[nH]c(=S)n1/N=C/c1c[nH]c2ccc(Br)cc12, the ratio change, negative = inhibition was inconclusive: 3.97% [at 9.22 µM].
With CN1CCN(c2nc(-c3ccc(Br)cc3)nnc2-c2ccccc2)CC1 the ratio change, negative = inhibition was inconclusive: -12.1%.
In the case of CC1(C)CC(=O)c2sc(N)nc2C1, the ratio change, negative = inhibition was inconclusive: 31%.
In the case of CCOC(=O)c1ccc[n+](CC(=O)c2ccccc2)c1, the ratio change, negative = inhibition was “inactive”.
In the case of CSCCC(NS(=O)(=O)c1ccccc1F)C(=O)OCc1ccccc1Cl (stereo not drawn), the ratio change, negative = inhibition was inconclusive: 0.243%.
In the case of Cc1ccc(Cn2c(SCCN3CCOCC3)nc3c2c(=O)n(C)c(=O)n3C)cc1, the ratio change, negative = inhibition was “inactive”.
In the case of Cc1ccc(C)c(CSC2=NCCN2C(=O)c2cccs2)c1, the ratio change, negative = inhibition was “inactive”.
With CC(C)(C)c1cc(CN2CCCCC2)cc(C(C)(C)C)c1O the ratio change, negative = inhibition was “inactive”.
For C/C(=N\Nc1ccc([N+](=O)[O-])cc1[N+](=O)[O-])C(C)C(C)C (stereo not drawn), the ratio change, negative = inhibition was inconclusive: 49% [at 46 µM].
With COC(=O)CCCn1c(C)cc(C(=O)CCl)c1C the ratio change, negative = inhibition was inactive: -10.5% [at 9.22 µM].
With O=C(N/N=C/c1cccc(O)c1)c1ccc(COc2ccccc2Br)cc1 the Potency was inconclusive: 22.4 µM [inhibitor, single point].
With Oc1ccc(-c2[nH]ncc2-c2nc3ccccc3s2)c(O)c1 the ratio change, negative = inhibition was inconclusive: -11.6% [at 46 µM].
In the case of Cc1nc(SCn2nnc3ccccc3c2=O)nc(C)c1C, the ratio change, negative = inhibition was inconclusive: 21.2%.
For N#Cc1nc(-c2cccc3ccccc23)oc1NCCN1CCCCC1, the ratio change, negative = inhibition was “inactive”.
With O=C(CSc1nc2ccccc2s1)N1CCOCC1 the ratio change, negative = inhibition was “inactive”.
In the case of CCCC(=O)NC(c1cccs1)c1cc(Cl)c2cccnc2c1O (stereo not drawn), the ratio change, negative = inhibition was inconclusive: 146% [at 46 µM].
For CCOC(=O)C(C)c1nn(C)c(=O)c2ccccc12 (stereo not drawn), the Potency was inconclusive: 35.5 µM [fluorescent, single point].
For O=C(CN1C(=O)NC2(CCCC2)C1=O)NCCC1=CCCCC1, the ratio change, negative = inhibition was inconclusive: 214%.
For COc1ccccc1/C=N/NC(=O)c1ccc(NC(=O)c2cccc([N+](=O)[O-])c2)cc1, the ratio change, negative = inhibition was inconclusive: 17.9% [at 46 µM].
